Experimental data taken from paper doi:10.1101/2022.09.01.506260.

Target: T1, PEAK1^IDR1 (N-terminally truncated PEAK1, residues 1082-1746) (human) (UniProt Q9H792)
T1 sequence: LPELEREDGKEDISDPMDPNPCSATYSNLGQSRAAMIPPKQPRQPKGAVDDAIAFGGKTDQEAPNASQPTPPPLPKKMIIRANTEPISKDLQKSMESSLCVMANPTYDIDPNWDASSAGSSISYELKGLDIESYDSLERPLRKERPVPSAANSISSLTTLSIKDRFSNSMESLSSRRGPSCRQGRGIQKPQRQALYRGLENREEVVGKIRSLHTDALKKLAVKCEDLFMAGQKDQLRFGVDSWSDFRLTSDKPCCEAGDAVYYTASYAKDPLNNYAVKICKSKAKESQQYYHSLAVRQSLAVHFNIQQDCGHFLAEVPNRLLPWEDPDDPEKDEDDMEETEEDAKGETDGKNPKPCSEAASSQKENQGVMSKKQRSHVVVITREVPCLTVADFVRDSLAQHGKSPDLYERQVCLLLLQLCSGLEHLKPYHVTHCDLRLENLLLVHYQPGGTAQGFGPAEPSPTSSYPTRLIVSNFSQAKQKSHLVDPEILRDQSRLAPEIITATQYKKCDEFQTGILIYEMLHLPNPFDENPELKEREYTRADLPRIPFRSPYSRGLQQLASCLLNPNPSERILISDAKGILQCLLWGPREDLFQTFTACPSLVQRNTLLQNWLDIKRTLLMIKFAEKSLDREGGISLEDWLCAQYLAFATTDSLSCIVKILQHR
Assay: affinity purification with mass spectrometry + SEC

**Q.** For “insect cell derived 14-3-3ε,ζ heterodimer (complex)”, which binding is on record?
**A.** no binding

Results are given in words; binding and its absence hold for the method and conditions named. In cells and extracts the contact can be indirect. These calls come from enrichment with a bait or labelling near it, and not all partners need be listed. A no says only that the protein was not detected with the bait.
